In publication PMC11014436:
These are yes or no findings as the source states them, for the method shown. For some of these results: Binding seen in cells or lysates may run through a third protein. Some entries that bind do so weakly or less than the wild type. For some of these results: Sequences can lack the tags named with a protein.

Chains of the proteins cited; added tags and fusions are not shown.
UniProt Q9NP72: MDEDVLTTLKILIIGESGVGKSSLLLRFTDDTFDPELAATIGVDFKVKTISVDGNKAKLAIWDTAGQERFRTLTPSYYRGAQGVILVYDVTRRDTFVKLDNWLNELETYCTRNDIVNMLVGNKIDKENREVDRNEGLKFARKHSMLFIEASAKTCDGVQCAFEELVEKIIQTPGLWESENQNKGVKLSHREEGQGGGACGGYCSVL
UniProt P11142: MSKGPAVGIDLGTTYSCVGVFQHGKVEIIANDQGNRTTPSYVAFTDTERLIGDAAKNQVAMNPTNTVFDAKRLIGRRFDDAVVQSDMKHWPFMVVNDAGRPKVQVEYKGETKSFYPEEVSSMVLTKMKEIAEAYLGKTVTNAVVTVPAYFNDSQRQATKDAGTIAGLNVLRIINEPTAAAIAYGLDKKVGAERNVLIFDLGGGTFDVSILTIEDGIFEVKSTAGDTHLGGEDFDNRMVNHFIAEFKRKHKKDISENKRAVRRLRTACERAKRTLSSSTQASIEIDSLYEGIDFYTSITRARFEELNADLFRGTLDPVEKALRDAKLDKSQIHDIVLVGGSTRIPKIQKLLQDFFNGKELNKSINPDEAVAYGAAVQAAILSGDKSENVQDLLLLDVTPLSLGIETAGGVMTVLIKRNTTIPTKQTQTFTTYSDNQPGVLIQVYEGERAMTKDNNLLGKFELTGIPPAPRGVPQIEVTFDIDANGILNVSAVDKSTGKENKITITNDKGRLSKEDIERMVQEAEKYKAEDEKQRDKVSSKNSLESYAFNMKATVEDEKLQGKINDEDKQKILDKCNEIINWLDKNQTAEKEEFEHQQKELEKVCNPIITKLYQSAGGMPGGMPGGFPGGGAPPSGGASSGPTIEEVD

Experiments:
GST-RAB18 = GST-RAB18 (UniProt Q9NP72); assay: pull-down; in vitro affinity isolation: GST-tag purification resin, 1 nM His-tagged protein with 1 nM GST fusion protein in 500 μL PBS + 1% Triton X-100, 45 min at 4°C; five washes; immunoblot; both purified
GST-HSPA8 = GST-HSPA8 (UniProt P11142); assay: as above
RAB18-FLAG = RAB18-FLAG (UniProt Q9NP72); assay: co-IP; HEK293T cells co-transfected for 24 h; lysis buffer PBS, 1% NP-40, 5 mM EDTA, 5 mM EGTA; Sepharose with IgG, anti-FLAG or anti-HA mAb for 4 h; immunoblot
RAB18-HA = RAB18-HA (UniProt Q9NP72); assay: as above

With “His-SUMO-HSPA8 (from UniProt P11142 1-646)” the binding (GST-RAB18) was “binds”.

With “His-SUMO-RAB18 (from UniProt Q9NP72 1-206)” the binding (GST-HSPA8) was “binds”.

For HSPA8-HA (from UniProt P11142 1-646), the binding (RAB18-FLAG) was “binds”.

B1: PLIN2 (aa 1–251)-FLAG (domain or fragment, UniProt Q99541 1-251)
chain: MASVAVDPQPSVVTRVVNLPLVSSTYDLMSSAYLSTKDQYPYLKSVCEMAENGVKTITSVAMTSALPIIQKLEPQIAVANTYACKGLDRIEERLPILNQPSTQIVANAKGAVTGAKDAVTTTVTGAKDSVASTITGVMDKTKGAVTGSVEKTKSVVSGSINTVLGSRMMQLVSSGVENALTKSELLVEQYLPLTEEELEKEAKKVEGFDLVQKPSYYVRLGSLSTKLHSRAYQQALSRVKEAKQKSQQTIS
With B1 the binding (RAB18-HA) was “no binding”.
